Experimental data taken from publication PMC9205888, “Efficient discrimination against RNA-containing primers by human DNA polymerase ε”.
pKd: −log10 of the molar value. The exact form of at least one protein or probe is not confirmed. Protein sequences can lack the tags named with them. Whether high values mean tight binding is not given here for every scale.

Biological target: T1, hPolεCD (DNA polymerase ε catalytic domain, exo-) D275N,E277Q,del185-209 (Homo sapiens) (UniProt Q07864)
T1 sequence (looked up): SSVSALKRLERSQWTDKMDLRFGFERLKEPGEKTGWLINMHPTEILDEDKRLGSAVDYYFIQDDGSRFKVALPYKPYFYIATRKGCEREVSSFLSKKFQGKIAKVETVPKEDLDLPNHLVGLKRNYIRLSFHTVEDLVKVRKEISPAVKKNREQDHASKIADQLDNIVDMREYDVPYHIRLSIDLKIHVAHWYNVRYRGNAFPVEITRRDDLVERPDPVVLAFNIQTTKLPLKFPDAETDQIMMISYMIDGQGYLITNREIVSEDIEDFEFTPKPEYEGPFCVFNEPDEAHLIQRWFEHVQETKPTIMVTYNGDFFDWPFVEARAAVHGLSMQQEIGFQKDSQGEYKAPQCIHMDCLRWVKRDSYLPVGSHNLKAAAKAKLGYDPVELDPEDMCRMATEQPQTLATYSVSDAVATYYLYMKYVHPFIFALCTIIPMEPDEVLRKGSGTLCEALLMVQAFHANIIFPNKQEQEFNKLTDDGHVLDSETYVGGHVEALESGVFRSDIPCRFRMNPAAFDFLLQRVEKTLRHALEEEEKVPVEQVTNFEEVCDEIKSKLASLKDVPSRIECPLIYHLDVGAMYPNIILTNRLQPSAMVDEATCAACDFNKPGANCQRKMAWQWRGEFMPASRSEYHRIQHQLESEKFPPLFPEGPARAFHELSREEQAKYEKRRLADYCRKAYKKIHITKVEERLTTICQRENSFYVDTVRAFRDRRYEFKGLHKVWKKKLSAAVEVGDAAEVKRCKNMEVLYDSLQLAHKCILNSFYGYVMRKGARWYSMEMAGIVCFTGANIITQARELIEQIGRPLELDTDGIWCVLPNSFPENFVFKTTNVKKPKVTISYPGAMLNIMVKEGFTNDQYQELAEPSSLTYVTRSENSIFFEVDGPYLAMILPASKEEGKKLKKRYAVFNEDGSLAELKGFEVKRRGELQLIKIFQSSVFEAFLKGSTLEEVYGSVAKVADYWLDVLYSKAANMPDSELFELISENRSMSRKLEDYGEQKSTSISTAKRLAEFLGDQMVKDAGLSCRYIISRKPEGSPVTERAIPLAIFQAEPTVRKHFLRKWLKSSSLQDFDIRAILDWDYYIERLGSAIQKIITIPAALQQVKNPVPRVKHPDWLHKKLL
Test: BLI
Details: BLI (Octet K2): 30 mM Tris-Hepes pH 7.8, 100-150 mM NaCl, 2 mM TCEP, 0.002% Tween 20, 23 °C, recombinant protein, residues 27-1172, label: 5' BiotinTEG on template; for pKd: 50 µM dTTP, 5 mM Mg2+

“AATACATAAGCGCTCCAGGCAAT / GCCTGGAGCGC [D10-R1 template:primer]” was tested, and the pKd (100 mM NaCl, primer nt 1-10 DNA, nt 11 3'-deoxy-C (2'-OH)) was 6.65.

“AATACATAAGCGCTCCAGGCAAT / GCCUGGAGCGC [R10-D1 template:primer]” gave a binding signal (fold KD increase vs no additive) (50 µM dTTP only, primer nt 1-10 RNA, nt 11 2',3'-dideoxy-C) of 1.8, a binding signal (fold KD increase vs no additive) (5 mM Mg2+ only, primer nt 1-10 RNA, nt 11 2',3'-dideoxy-C) of 7.5 and a pKd (100 mM NaCl, primer nt 1-10 RNA, nt 11 2',3'-dideoxy-C) of 6.37.

With “AATACATAAGCGCTCCAGGCAAT / GCCUGGAGCGC [R6-D5 template:primer]” the pKd (100 mM NaCl, primer nt 1-6 RNA, nt 7-11 DNA, 3' ddC) was 6.66.

With “AATACATAAGCGCTCCAGGCAAT / GCCTGGAGCGC [D11 template:primer]” the pKd (150 mM NaCl, primer 3'-terminal 2',3'-dideoxy-C) was 5.42.

For “AATACATAAGCGCTCCAGGCAAT / GCCUGGAGCGC [R8-D3 template:primer]”, the pKd (100 mM NaCl, primer nt 1-8 RNA, nt 9-11 DNA, 3' ddC) was 6.36.
